Two molecules from patent publication US20250170127A1, “RE-SENSITIZING MULTIDRUG-RESISTANT (MDR) GRAM-NEGATIVE BACTERIA TO COLISTIN USING IONOPHORES” (The Regents of the University of Colorado, a body corporate, priority 2022, published 2025) can be followed below.

The test system of the series is HeLa cells. Format: cell-based, human. Particulars: GI50 in HeLa / MRC in AR-0493. On the procedure: These 10 compounds were tested for their MICs and minimum re-sensitizing concentrations (MRCs) in the presence colistin at 2 μg/mL in E. coli AR-0493. […] To evaluate their toxicity in mammalian cells, the present inventors treated human epithelial adenocarcinoma HeLa cells with each compound at a wide range of concentrations.
To evaluate the mammalian toxicity of these analogs, Applicants tested them in cell viability assay using human cervical adenocarcinoma HeLa cells. Their respective half maximal growth inhibition concentration (GI50) was calculated using KaleidaGraph. The selectivity index (SI) for each compound was also calculated as the ratio of their GI50 and MRC. […] Therefore, Applicants selected two bisanilino analogs, 7l and 7m, that bear chlorines at the meta- and para-positions, respectively, of the phenyl groups for further characterization studies. […]. […] Their mammalian toxicities were also evaluated, and SIs calculated. […] Applicants we next explored the scope of analogs 71 and 7m their colistin-potentiating activity in 8 different MDR Gram negative bacteria with diverse genetic backgrounds and resistance mechanisms (Table 7). All strains were obtained from CDC and FDA Antibiotic Resistance Bank. For example, E. coli AR-0493 and K. pneumoniae AR-0497 carry the plasmid that contains the most prevalent mcr-1 gene. […]

Regarding `Clc1cccc(Nc2nc3nonc3nc2Nc2cccc(Cl)c2)c1` [Compound 7l], the “SI (Selective Index), ratio of GI50 and MRC” value was 44.
The result for `Clc1ccc(Nc2nc3nonc3nc2Nc2ccc(Cl)cc2)cc1` [Compound 7m] reads 56.
